The source of these data is patent US20110207796A1, “ALPHA-SYNUCLEIN KINASE” (Elan Pharma International Limited, priority 2008, published 2011).

A value given as a limit tells only on which side of the number the result lay.

Experiment [1] has as its system endogenous kinase (synuclein phosphorylation). In words: HEK-293 cells overexpressing synuclein with empty vector, inhibition of synuclein phosphorylation. The class given is cell-based, human. The method, then:
All vectors had the sequence coding for the protein of interest. Transfection was accomplished using Lipofectamine 2000 (Invitrogen, Carlsbad, Calif.) with 0.08 μg vector. Cells were washed and harvested 48 hours post-transfection. A Micro BCA (Pierce) total protein assay and total synuclein and phospho-synuclein ELISAs were performed on each plate of treated cells.

In experiment [2] the test system is synuclein phosphorylation (serine-129). In words: inhibition of synuclein phosphorylation across the cellular paradigms (primary neuronal cultures and 293 cells). The class given is cell-based, mouse, rat and human. To be noted: cell types tested.

What is called EC50 is the midpoint of the concentration-response curve. A high value points to a less potent agent. `CO[C@@H]1[C@H](N(C)C(=O)c2ccccc2)C[C@H]2O[C@]1(C)n1c3ccccc3c3c4c(c5c6ccccc6n2c5c31)C(=O)NC4` [N-benzoyl staurosporine]: in experiment [1], the EC50 is > 100 µM. The “inhibition of 50% of synuclein phosphorylation in cells” value in experiment [2] is given as “did not inhibit 50%”.
